Values from PubChem BioAssay AID743121 (NCATS, 2013).
This is an unselected part of about 26,000 deposited reagents. In the full data, 167 (0.63%) are marked active. 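Calls are per gene from RSA p-values that are not deposited; an individual active-marked siRNA can sensitise only weakly.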 Reagents against one gene are numbered here. Not all columns of the deposit are shown.

- Test: 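Genes whose silencing strengthens cell killing by camptothecin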 (primary screen)
- Cells: MDA-MB-231 cells, a human breast cancer line
- Reagents: single siRNA against human genes, 20 nM siRNA (0.8 pmol per well)
- Timing: 120 h (drug added 48 h after transfection, read 72 h later)
- Conditions: camptothecin 20 nM (about EC30) for 72 h; vehicle 0.1% DMSO in parallel plates
- Read-out: 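CellTiter-Glo ATP signal, scaled to control siRNA as percent viability; sensitisation given as log2 of untreated divided by camptothecin-treated viability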
- Direction: log2 vehicle/camptothecin viability: higher = stronger sensitisation to camptothecin
- Call rule: 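Active genes have an RSA gene-level p-value below 0.001, computed from the ratios of their separate siRNAs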

{"gene": "CD151 (GeneID 977)", "reagent no.": 1, "log2 vehicle/camptothecin viability": -0.257, "outcome": "inactive"}
{"gene": "CD151 (GeneID 977)", "reagent no.": 2, "log2 vehicle/camptothecin viability": -0.0783, "outcome": "inactive"}
{"gene": "CD151 (GeneID 977)", "reagent no.": 3, "log2 vehicle/camptothecin viability": -0.477, "outcome": "inactive"}
{"gene": "CD151 (GeneID 977)", "reagent no.": 4, "log2 vehicle/camptothecin viability": -0.0365, "outcome": "inactive"}
{"gene": "MSL2 (GeneID 55167)", "reagent no.": 1, "log2 vehicle/camptothecin viability": 0.005, "outcome": "inactive"}
{"gene": "MSL2 (GeneID 55167)", "reagent no.": 2, "log2 vehicle/camptothecin viability": -0.0543, "outcome": "inactive"}
{"gene": "MSL2 (GeneID 55167)", "reagent no.": 3, "log2 vehicle/camptothecin viability": -0.494, "outcome": "inactive"}
{"gene": "MSL2 (GeneID 55167)", "reagent no.": 4, "log2 vehicle/camptothecin viability": -0.138, "outcome": "inactive"}
{"gene": "HSPD1 (GeneID 3329)", "reagent no.": 1, "log2 vehicle/camptothecin viability": -0.455, "outcome": "inactive"}
{"gene": "HSPD1 (GeneID 3329)", "reagent no.": 2, "log2 vehicle/camptothecin viability": -0.207, "outcome": "inactive"}
{"gene": "HSPD1 (GeneID 3329)", "reagent no.": 3, "log2 vehicle/camptothecin viability": -0.218, "outcome": "inactive"}
{"gene": "GNA12 (GeneID 2768)", "reagent no.": 1, "log2 vehicle/camptothecin viability": -0.0771, "outcome": "inactive"}
{"gene": "GNA12 (GeneID 2768)", "reagent no.": 2, "log2 vehicle/camptothecin viability": 0.96, "outcome": "inactive"}
{"gene": "GNA12 (GeneID 2768)", "reagent no.": 3, "log2 vehicle/camptothecin viability": -0.386, "outcome": "inactive"}
{"gene": "GNA12 (GeneID 2768)", "reagent no.": 4, "log2 vehicle/camptothecin viability": -0.143, "outcome": "inactive"}
{"gene": "TGFBI (GeneID 7045)", "reagent no.": 1, "log2 vehicle/camptothecin viability": -0.15, "outcome": "inactive"}
{"gene": "TGFBI (GeneID 7045)", "reagent no.": 2, "log2 vehicle/camptothecin viability": -0.221, "outcome": "inactive"}
{"gene": "TGFBI (GeneID 7045)", "reagent no.": 3, "log2 vehicle/camptothecin viability": -0.257, "outcome": "inactive"}
{"gene": "TGFBI (GeneID 7045)", "reagent no.": 4, "log2 vehicle/camptothecin viability": -0.573, "outcome": "inactive"}
{"gene": "OR2B2 (GeneID 81697)", "reagent no.": 1, "log2 vehicle/camptothecin viability": -0.0618, "outcome": "inactive"}
{"gene": "OR2B2 (GeneID 81697)", "reagent no.": 2, "log2 vehicle/camptothecin viability": 0.648, "outcome": "inactive"}
{"gene": "OR2B2 (GeneID 81697)", "reagent no.": 3, "log2 vehicle/camptothecin viability": -0.309, "outcome": "inactive"}
{"gene": "OR2B2 (GeneID 81697)", "reagent no.": 4, "log2 vehicle/camptothecin viability": -0.199, "outcome": "inactive"}
{"gene": "KLK10 (GeneID 5655)", "reagent no.": 1, "log2 vehicle/camptothecin viability": -0.299, "outcome": "inactive"}
{"gene": "KLK10 (GeneID 5655)", "reagent no.": 2, "log2 vehicle/camptothecin viability": -0.102, "outcome": "inactive"}
{"gene": "KLK10 (GeneID 5655)", "reagent no.": 3, "log2 vehicle/camptothecin viability": 0.376, "outcome": "inactive"}
{"gene": "KLK10 (GeneID 5655)", "reagent no.": 4, "log2 vehicle/camptothecin viability": 0.161, "outcome": "inactive"}
{"gene": "HGFAC (GeneID 3083)", "reagent no.": 1, "log2 vehicle/camptothecin viability": -0.381, "outcome": "inactive"}
{"gene": "HGFAC (GeneID 3083)", "reagent no.": 2, "log2 vehicle/camptothecin viability": -0.466, "outcome": "inactive"}
{"gene": "HGFAC (GeneID 3083)", "reagent no.": 3, "log2 vehicle/camptothecin viability": -0.203, "outcome": "inactive"}
{"gene": "HGFAC (GeneID 3083)", "reagent no.": 4, "log2 vehicle/camptothecin viability": 0.0566, "outcome": "inactive"}
{"gene": "TIMP2 (GeneID 7077)", "reagent no.": 1, "log2 vehicle/camptothecin viability": 0.174, "outcome": "inactive"}
{"gene": "TIMP2 (GeneID 7077)", "reagent no.": 2, "log2 vehicle/camptothecin viability": 0.0345, "outcome": "inactive"}
{"gene": "TIMP2 (GeneID 7077)", "reagent no.": 3, "log2 vehicle/camptothecin viability": -0.122, "outcome": "inactive"}
{"gene": "TIMP2 (GeneID 7077)", "reagent no.": 4, "log2 vehicle/camptothecin viability": -0.477, "outcome": "inactive"}

A few values from above:
Entry for TGFBI (GeneID 7045) #1 under “log2 vehicle/camptothecin viability”: -0.15
CD151 (GeneID 977) #2, log2 vehicle/camptothecin viability: -0.0783
